# The full ranking holds about 3,200 compounds; the median of “TSA(with NAD+) / Primary screening (TSA) / delta Tm (K)” is about -0.04, and the highest 2% start at about 0.37. Some of the results follow.
# The chains behind the UniProt entries cited, without tags or fusion partners. Residues count along the entry.
# UniProt Q96EB6, 2-747 limits assumed: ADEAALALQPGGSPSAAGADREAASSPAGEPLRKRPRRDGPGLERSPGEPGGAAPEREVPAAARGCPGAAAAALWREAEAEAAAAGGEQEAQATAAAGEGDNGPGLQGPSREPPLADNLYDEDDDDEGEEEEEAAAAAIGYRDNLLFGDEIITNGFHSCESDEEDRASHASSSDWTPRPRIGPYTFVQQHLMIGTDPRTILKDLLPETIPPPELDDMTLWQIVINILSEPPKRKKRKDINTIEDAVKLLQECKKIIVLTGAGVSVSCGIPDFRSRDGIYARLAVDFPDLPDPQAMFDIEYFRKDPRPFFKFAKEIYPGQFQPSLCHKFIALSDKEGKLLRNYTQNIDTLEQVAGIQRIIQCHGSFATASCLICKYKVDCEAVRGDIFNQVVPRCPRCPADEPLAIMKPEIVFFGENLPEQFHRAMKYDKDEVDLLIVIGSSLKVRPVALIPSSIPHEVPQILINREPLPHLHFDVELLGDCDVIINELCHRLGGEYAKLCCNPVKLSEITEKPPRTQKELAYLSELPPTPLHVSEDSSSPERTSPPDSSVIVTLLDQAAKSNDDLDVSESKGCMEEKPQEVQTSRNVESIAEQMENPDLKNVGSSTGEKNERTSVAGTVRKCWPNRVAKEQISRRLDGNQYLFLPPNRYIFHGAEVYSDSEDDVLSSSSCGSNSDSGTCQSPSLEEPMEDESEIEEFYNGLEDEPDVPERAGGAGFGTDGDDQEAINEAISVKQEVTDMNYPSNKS
# Target: NAD-dependent deacetylase Sirtuin 1 (human, UniProt Q96EB6)
# Test: primary screen, delta tm
# Set-up: single well (n = 1, as 'the same TSA')
# Details: 10 µM
row,Compound,TSA(with NAD+) / Primary screening (TSA) / delta Tm (K)
1,COc1ccc(N(C)S(=O)(=O)c2cccc(C(=O)OCc3ccc(C)cc3)c2)cc1,0.08
2,COc1ccc(C(CNC(=O)CCc2nc3ccccc3[nH]2)N(C)C)cc1 (centres unmarked),-0.04
3,COc1ccc2nc(C)c(C(=O)NC34CC5CC(CC(C5)C3)C4)cc2c1,-0.28
4,COC(=O)c1ncccc1N1CCN(C(=O)CN2CCOCC2)CC1,-0.18
5,C[C@@H](O)CCN,-0.13
6,CC(NC(=O)COC(=O)CNC(=O)c1ccc(-c2ccccc2)cc1)C12CC3CC(CC(C3)C1)C2 (centres unmarked),0.07
7,COc1ccc(C(=O)NCCc2ccc(-c3csc(C)n3)s2)cc1,-0.09
8,NC(=O)c1ccc(=O)n(Cc2ccn(-c3ccccc3)n2)n1,-0.28
9,O=C(Cn1nc(-c2ccccc2)ccc1=O)Nc1cc(-c2cccs2)nn1-c1ccccc1,-0.08
10,COC(=O)c1cc(NC(=O)CN2CCC(C(N)=O)CC2)cc(C(=O)OC)c1,-0.03
11,COc1ccc(C2=CCN(C(=O)Cn3cc(C)c4ccccc43)C2)cc1,0.06
12,Cc1ccc2c(CC(=O)Nc3cc(C(N)=O)ccc3N3CCCC3)coc2c1,-0.06
13,CC(C)Oc1ccc(C(=O)C2=C(O)C(=O)N(CCCN3CCOCC3)C2c2ccc(F)cc2)cc1 (centres unmarked),0.01
14,Nc1ccccc1-c1nc(C2CC2)n[nH]1,-0.06
15,Cc1cc(C)c2c(N)c(C(=O)NN=C3C4CC5CC(C4)CC3C5)sc2n1,-0.08
16,Cc1ccc2[nH]c(-c3cccs3)c(CCC(=O)N3CCC(C(=O)Nc4ccccc4)CC3)c2c1,-0.04
17,CON(C)C(=O)c1cc2c(C)nn(C)c2nc1C,-0.11
18,Cc1csc2c(N3CC4CCCN4CC3C)ncnc12 (centres unmarked),-0.19
19,O=C1C(=O)N(CCOc2ccc3ccccc3c2)c2ccccc21,-0.14
20,O=C(NCc1nc2ccccc2[nH]1)C(O)(c1ccccc1)c1ccccc1,-0.09
21,Cc1cc(-c2nc3cc(F)ccc3n2C)ccc1NC(=O)C1CCCN1C(=O)C(C)C (centres unmarked),-0.01
22,COc1ccc(C)cc1-c1nnc(S)n1N,-0.11
23,CC1CCC1N (centres unmarked),-0.04

row,Compound,TSA(with NAD+) / Primary screening (TSA) / delta Tm (K)
1,CCN(C(=O)CSc1nnc(-c2ccccc2Cl)n1C1CCCC1)C1CCS(=O)(=O)C1 (centres unmarked),-0.01
2,COc1ccc(C(CN2CCN(C)CC2)NC(=O)OC(C)(C)C)cc1 (centres unmarked),0.03
3,COc1ccc(-c2csc3nc(C)nc(N4CCN(C5CCS(=O)(=O)C5)CC4)c23)cc1OC (centres unmarked),-0.09
4,O=C1CCCCC(C(=O)Nc2ccc(-c3nc4ccccc4[nH]3)cc2)N1 (centres unmarked),0.16
5,CCOc1ccc2nc(NN=C3C(=O)NC(=S)NC3=O)sc2c1,-0.02
6,O=c1cc(CSc2nnc(Nc3ccccc3)s2)c2ccc(O)cc2o1,0.13
7,COc1ccc(O)c(/C(C)=N/Nc2nc(C)cc(O)n2)c1,-0.03
8,NC(=O)c1ccc(NC(=O)c2cc(-c3ccccc3)nc3ccccc23)cc1,-0.01
9,COC(=O)NC(CC(C)C)C(=O)NCc1cc(C)nc2ccccc12 (centres unmarked),-0.06
10,CCOCCCN1C(=O)/C(=C/c2c(N3CCC(C)CC3)nc3ccc(C)cn3c2=O)SC1=S,0.07
11,c1ccc(-c2cnc(CSc3nc4ccccc4o3)o2)cc1,-0.02
12,COc1ccc(OC)c2c1CN(C(C)c1nc(C3CC3)no1)CC2O (centres unmarked),-0.08
13,CN(Cc1ccc(F)cc1)c1cc(=O)n2ccccc2n1,-0.01
14,CCC(N)CC(=O)O (centres unmarked),-0.22
15,C=CCOc1cccc(C2C(C(=O)c3ccc(C)o3)=C(O)C(=O)N2CCCN2CCOCC2)c1 (centres unmarked),-0.06
16,CCc1c(C)nc2ccccc2c1N1CCN2C(=O)C(=O)NCC2C1 (centres unmarked),-0.11
17,CC1(C)C(NC(=O)C2CC(c3cccc(F)c3)=NO2)C2CCOC21 (centres unmarked),-0.14
18,N#C/C(=C/c1ccc(-c2cccc(Cl)c2)o1)C(=O)Nc1cccc2ncccc12,0.07
19,O=C(Nc1ccc(S(=O)(=O)N2CCOCC2)cc1)C1=COCCO1,-0.11
20,COc1ccc(/C=N/c2ccc(C(=O)O)cc2)cc1Br,-0.19
21,Cc1ccc(S(=O)(=O)N2CCN(C(=O)CSc3nnc(NCc4ccco4)s3)CC2)cc1,-0.03
22,Cc1nc2c(C(N)=O)ncn2c(C)c1CCC(=O)NCCSc1ccccc1,0.01
23,Cc1ccc(S(=O)(=O)NCc2ccco2)cc1C(=O)NCc1ccccc1-n1cccn1,-0.24

row,Compound,TSA(with NAD+) / Primary screening (TSA) / delta Tm (K)
1,CN(C)c1c(F)cc(C(=N)N)cc1F,-0.11
2,CC(=O)c1sc(NC(=O)c2cnc3ccccc3n2)nc1-c1ccccc1,0.09
3,CCO/C=C1/C(=O)N(c2ccc(S(=O)(=O)N3CCOCC3)cc2)C(=O)c2ccccc21,-0.05
4,O=C(CCn1[nH]c(=O)ccc1=O)Nc1cccc2cccnc12,-0.11
5,C=CCOc1ccc(C(=O)C2=C(O)C(=O)N(CCCN3CCOCC3)C2c2ccc(F)cc2)cc1 (centres unmarked),-0.11
6,Fc1ccc2[nH]cc(C3CCNCC3)c2c1,-0.11
7,CSCCOC(=O)c1ccc2[nH]c(C(F)F)nc2c1,-0.21
8,c1nc(N2CCNCC2)c2sccc2n1,-0.01
9,CCCOc1cccc(C2C(C(=O)c3ccc(C)o3)=C(O)C(=O)N2CCCN2CCOCC2)c1 (centres unmarked),-0.12
10,CCCCc1ccc(Nc2nnc(SCC(=O)Nc3ccc(N4CCN(Cc5ccccc5)CC4)cc3)s2)cc1,0.02
11,CC(C)c1nnc(S)[nH]1,-0.03
12,COCCN(CC(=O)Nc1ccccc1C(F)(F)F)C(=O)Cc1csc(-c2ccsc2)n1,-0.06
13,NC(=O)C1CCN(c2ncnc3sc4c(c23)CCC4)CC1,-0.04
14,CC(Nc1cccc(C(N)=O)c1)C1CN(Cc2ccccc2)CCO1 (centres unmarked),-0.15
15,COC(=O)c1ccc2[nH]c3c(c2c1)CN(C(=O)C(C)C)CC3,0.07
16,COc1ccc(-c2cc(NC(=O)CCNC(=O)c3ccc(Cl)cc3)ccc2OC(F)F)cc1,0.45
17,c1ccc2c(c1)CCC/C2=N/Nc1nc2ccccc2[nH]1,-0.15
18,CC(OC(=O)c1ccccc1NS(=O)(=O)c1ccc2c(c1)OCCO2)C(=O)NC(C)C1CC2CCC1C2 (centres unmarked),-0.11
19,CC(C)(C)CC(NCc1ccc(S(=O)(=O)CCO)cc1)C1CC1 (centres unmarked),-0.14
20,CSc1nnnn1-c1cccc(NC(=O)NC(C)C2CCCO2)c1 (centres unmarked),-0.02
21,c1ccc(-n2ncc3c(N4CCCC4)ncnc32)cc1,0.02
22,O=C(NCCS(=O)(=O)N1CCc2ccccc21)Nc1ccn(Cc2ccccc2)n1,-0.03
23,CC(NC(=O)Cn1ccc(=O)c2ccccc21)C12CC3CC(CC(C3)C1)C2 (centres unmarked),-0.01

row,Compound,TSA(with NAD+) / Primary screening (TSA) / delta Tm (K)
1,Cc1nc2cc(C(=O)Nc3ccc(NC(=O)N4CCCCCC4)cc3)ccc2n1C,0.07
2,N#Cc1ccccc1S(=O)(=O)N1CCCC(c2cc(C(N)=O)[nH]n2)C1 (centres unmarked),-0.18
3,Cc1ccc(N(C)S(=O)(=O)c2cccc(C(=O)Nc3ncc(C)s3)c2)cc1,-0.06
4,COc1cccc(NC(=O)c2cccc(S(=O)(=O)N(C)c3ccc(C)cc3)c2)c1,-0.06
5,O=C(NC1CC1)C1CCCN1C(=O)c1n[nH]c2ccccc12 (centres unmarked),-0.06
6,CC(=O)N1CCCc2cc(S(=O)(=O)Nc3cccc4ccccc34)ccc21,-0.11
7,Cc1ccc(C)c(NC(=O)COc2ccc3c4c(c(=O)oc3c2)CCC4)c1,-0.14
8,Cc1cn2c3c(=O)n(CCC(C)C)c(=O)n(C)c3nc2n1CCC(C)C,-0.02
9,O=C(CN1CCN(C(=O)CCc2c[nH]c3ccccc23)CC1)Nc1ccccc1,-0.09
10,NC(=O)C1CCCN(C(=O)c2cc3c(Cl)c(Cl)ccc3[nH]2)C1 (centres unmarked),-0.08
11,NCC(Cc1ccccn1)C(=O)O (centres unmarked),-0.11
12,Cc1ccc(NC(=O)NCCc2cccc(O)c2)cc1NC(=O)NCCc1cccc(O)c1,0.32
13,Cc1ccc(N(C)S(=O)(=O)c2cccc(C(=O)Nc3ccccc3Cl)c2)cc1,-0.13
14,NC(=O)C1CCN(c2ncnc3sc4c(c23)CCCCC4)CC1,0.26
15,CCC(CNC(=O)NCc1noc(C)n1)N1CCc2ccccc2C1 (centres unmarked),0.02
16,CC1CN(C(=O)CC23CC4CC(CC(O)(C4)C2)C3)CC(c2ccccc2)O1 (centres unmarked),-0.06
17,CNC(=O)CCN(C)S(=O)(=O)c1cccc(Br)c1,0.01
18,Cc1ccccc1NC(=O)CN1CC=C(c2c[nH]c3ccccc23)CC1,0.06
19,Cc1c(F)cc(C(N)=O)cc1NC(=O)c1sc2nc(C3CC3)nc(C)c2c1C,-0.01
20,COc1cc(CN(C)C(=O)Cn2[nH]c(=O)c3ccccc3c2=O)ccc1OCc1ccccc1,0.03
21,c1ccc(N2CCN(c3cc(C4CC4)nc4ncnn34)CC2)cc1,-0.01
22,O=C(c1ccccc1)N1CCN(C(=O)c2cccc3ccccc23)CC1,-0.02
23,CCS(=O)CCNC(=O)c1nc2ccccc2c(=O)[nH]1 (centres unmarked),-0.18

# Part of the list above, with bars between the fields:
row | Compound | TSA(with NAD+) / Primary screening (TSA) / delta Tm (K)
17 | CON(C)C(=O)c1cc2c(C)nn(C)c2nc1C | -0.11
18 | Cc1csc2c(N3CC4CCCN4CC3C)ncnc12 (centres unmarked) | -0.19
19 | O=C1C(=O)N(CCOc2ccc3ccccc3c2)c2ccccc21 | -0.14
20 | O=C(NCc1nc2ccccc2[nH]1)C(O)(c1ccccc1)c1ccccc1 | -0.09
21 | Cc1cc(-c2nc3cc(F)ccc3n2C)ccc1NC(=O)C1CCCN1C(=O)C(C)C (centres unmarked) | -0.01

# — article PMC6925144, “A prospective compound screening contest identified broader inhibitors for Sirtuin 1” (Scientific Reports, 2019)
